PubChem BioAssay AID504808 – Drosophila RNAi Screening Center – 2011
The deposit covers about 21,000 reagents; this is a random part of those with a known target gene and a result. In the full data, 18 (0.084%) were called active. 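Raw counts without plate normalisation, one of two replicates; the ratio scores behind the calls were not deposited.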 A number with no mark means an inactive call. The numbers tell different reagents against one gene apart. A plus sign joins genes that one reagent is predicted to hit. No sequences are given here. Not stated in the record: the amount of reagent, the time to read-out.

Test: 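Genes whose loss lifts activity of an E2F-responsive reporter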 (primary screen)
System: Drosophila S2 cells
Reagent: long dsRNA against Drosophila genes
Measured: 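Firefly luciferase driven by E2F sites, normalised to Renilla luciferase on the same minimal promoter, measured by plate reader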
Scale: E2F firefly: higher = more E2F reporter activity; Renilla normaliser: higher = more normaliser reporter signal
Active means: 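Called active if the normalised E2F reporter went up by over 50%; the cutoff is arbitrary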

| target | reagent | E2F firefly, rep 1 | Renilla normaliser, rep 1 |
| --- | --- | --- | --- |
| hzg (herzog) | 1 | 1.24e5 | 5696 |
| CG13050 | 1 | 1.58e5 | 7618 |
| mRpL4 (mitochondrial ribosomal protein L4) | 1 | 77525 | 3416 |
| JMJD6 (Jumonji domain containing 6) | 1 | 72082 | 3397 |
| tsg (twisted gastrulation) | 1 | 89567 | 5559 |
| Nprl3 (Nitrogen permease regulator-like 3) | 1 | 77431 | 3669 |
| CG7990 | 1 | 82716 | 2523 |
| CG7990 | 2 | 1.50e5 | 5268 |
| CG42296 | 1 | 1.74e5 | 6861 |
| Etf-QO (Electron transfer flavoprotein-ubiquinone oxidoreductase) | 1 | 1.35e5 | 5119 |
| CG12974 | 1 | 1.38e5 | 7214 |
| RpL6 (Ribosomal protein L6) | 1 | 47655 | 3999 |
| HP5 (Heterochromatin protein 5) | 1 | 8397 | 804 |
| CG5172 | 1 | 2.20e5 | 5677 |
| CG31463 | 1 | 1.24e5 | 5780 |
| Nse1 (Non-SMC element 1) | 1 | 1.08e5 | 4384 |
| Fibp | 1 | 68658 | 3968 |
| CG14082 | 1 | 1.49e5 | 6697 |
| RpL22 (Ribosomal protein L22) | 1 | 1.17e5 | 5927 |
| TfIIS (RNA polymerase II elongation factor) | 1 | 88284 | 3763 |
| Vinc (Vinculin) | 1 | 1908 | 920 |
| bbc (bb in a boxcar) | 1 | 72453 | 4429 |
| t-Grip128 (testis-specific gamma-tubulin ring protein 128) | 1 | 1.12e5 | 4231 |
| CG6574 | 1 | 1.33e5 | 6092 |
| CG3270 | 1 | 76784 | 3395 |
| Mnt | 1 | 1583 | 828 |
| Mnt | 2 | 83448 | 4993 |
| dpr15 (defective proboscis extension response 15) | 1 | 85122 | 2600 |
| dpr15 (defective proboscis extension response 15) | 2 | 1.24e5 | 6396 |
| dpr15 (defective proboscis extension response 15) | 3 | 1.51e5 | 6714 |
| CG46385 | 1 | 1942 | 168 |
| CG46385 | 2 | 1.45e5 | 4861 |
| CG4612 | 1 | 64353 | 3620 |
| dpr10 (defective proboscis extension response 10) | 1 | 1.35e5 | 4844 |
| dpr10 (defective proboscis extension response 10) | 2 | 1.40e5 | 5082 |
| dpr10 (defective proboscis extension response 10) | 3 | 89763 | 5158 |
| dpr10 (defective proboscis extension response 10) | 4 | 79753 | 3666 |
| gdrd (goddard) | 1 | 1.62e5 | 9481 |
| CG3226 | 1 | 7902 | 712 |
| FucTD (alpha1,3-fucosyltransferase D) | 1 | 1.08e5 | 4475 |
| PGAP5 (Post-GPI attachment to proteins 5) | 1 | 1.60e5 | 4834 |
| CG33285 | 1 | 93277 | 4187 |
| S1P (Site-1 protease) | 1 | 1.39e5 | 6514 |
| Sobp (Sine oculis-binding protein) | 1 | 3172 | 191 |
| CG30325 | 1 | 1.78e5 | 5959 |
| eIF4E7 (eukaryotic translation initiation factor 4E7) | 1 | 1.04e5 | 5917 |
| eIF4E7 (eukaryotic translation initiation factor 4E7) | 2 | 1.33e5 | 6242 |
| anne (anne boleyn) | 1 | 64989 | 2110 |
| insc (inscuteable) | 1 | 97344 | 4721 |
| CG5068 | 1 | 67245 | 3485 |
| alpha-Est1 (alpha-Esterase-1) | 1 | 73598 | 2804 |
| dgt1 (dim gamma-tubulin 1) | 1 | 2123 | 912 |
| Scox (Synthesis of cytochrome c oxidase) | 1 | 1.27e5 | 4512 |
| soti (scotti) | 1 | 85282 | 4347 |
| Stacl + CG8179 (retired record) | 1 | 56392 | 3273 |
| CG31612 | 1 | 99051 | 4521 |
| CG31612 | 2 | 1.03e5 | 3856 |
| CG32457 | 1 | 79934 | 4118 |
| gcl (germ cell-less) | 1 | 2993 | 184 |
| idc (identity crisis) | 1 | 62059 | 3981 |
| CG9143 | 1 | 71110 | 4207 |
| EndoA (Endophilin A) | 1 | 72743 | 3952 |
| Taf13 (TBP-associated factor 13) | 1 | 91472 | 3918 |
| Nup153 (Nucleoporin 153kD) | 1 | 86584 | 124 |
| vsg (visgun) | 1 | 1.03e5 | 5745 |
| mbl (muscleblind) | 1 | 1.61e5 | 7385 |
| mbl (muscleblind) | 2 | 65593 | 3310 |
| mbl (muscleblind) | 3 | 1.09e5 | 5133 |
| CkIalpha (Casein kinase Ialpha) | 1 | 1.38e5 | 5862 |
| CG1907 | 1 | 1817 | 924 |
| Tom7 (Translocase of outer membrane 7) | 1 | 1.36e5 | 5182 |
| Tom7 (Translocase of outer membrane 7) | 2 | 1.43e5 | 4558 |
| Irp-1A (Iron regulatory protein 1A) | 1 | 76308 | 3854 |
| wda (will decrease acetylation) | 1 | 1.12e5 | 6432 |
| CG31819 | 1 | 1.29e5 | 5102 |
| CG31955 | 1 | 1.45e5 | 4659 |
| CG12310 | 1 | 1.44e5 | 6856 |
| CG2681 | 1 | 1701 | 812 |
| CG14471 (retired record) | 1 | 1.01e5 | 4279 |
| CG40948 (retired record) | 1 | 92884 | 2741 |
| Hpd (4-hydroxyphenylpyruvate dioxygenase) | 1 | 87953 | 4128 |
| snoRNA:Me28S-A982b + Uhg4 + snoRNA:Me28S-G3255a + 1 more | 1 | 1.31e5 | 5874 |
| Dpit47 (DNA polymerase interacting tpr containing protein of 47kD) | 1 | 1.19e5 | 4556 |
| Leash | 1 | 1.40e5 | 5958 |

Reformatted: entries from further up
target | reagent | E2F firefly, rep 1 | Renilla normaliser, rep 1
Tom7 (Translocase of outer membrane 7) | 2 | 1.43e5 | 4558
Irp-1A (Iron regulatory protein 1A) | 1 | 76308 | 3854
wda (will decrease acetylation) | 1 | 1.12e5 | 6432
CG31819 | 1 | 1.29e5 | 5102
CG31955 | 1 | 1.45e5 | 4659
CG12310 | 1 | 1.44e5 | 6856
